Measurements as given in the supplement of paper PMC6078165.
The reference is the same well before dosing, and untreated signal decays as well.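 The tumor cells are basal-like or mesenchymal-like triple-negative breast cancer lines cultured without fibroblasts. Reduced red signal indicates lost mitochondrial integrity, serving as a proxy for apoptotic death.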

Legend:
Assay in all cases: relative JC-1 red fluorescence (viability) vs pre-drug, monoculture (fraction); higher = more viable cancer cells
Settings in all cases: coculture fibroblast: none (monoculture)
[1] = test system: BT20
Protocol: (§1)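 JC-1 labelled TNBC cells grown in monoculture (density kept equal with unlabelled cancer cells) in 384-well plates in FluoroBrite medium, treated with one of 42 anticancer drugs at 0.1, 1, 10 or 100 uM. JC-1 red fluorescence (mitochondrial integrity, surrogate of apoptotic death) was read by plate reader every 8 h for 72 h. Values are normalised to each well's pre-drug value, with background from alamethicin. The stock of one drug was tenfold lower, so its dose labels may be too high. Monoculture values are repeated alongside each fibroblast plate and are averaged here.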

[2] = test system: Hs578T
Protocol: as §1

[3] = test system: HCC1143
Protocol: as §1

[4] = test system: MDAMB468
Protocol: as §1

O=C(O)C(=O)O.[NH-][C@@H]1CCCC[C@H]1[NH-].[Pt+2] [Oxaliplatin]
relative JC-1 red fluorescence
Settings | 8 h | 16 h | 24 h | 32 h | 40 h | 48 h | 56 h | 64 h | 72 h
[1], 0.1 µM | 0.962 | 0.868 | 0.87 | 0.809 | 0.789 | 0.783 | 0.768 | 0.772 | 0.768
[1], 1 µM | 0.9352 | 0.877 | 0.778 | 0.725 | 0.684 | 0.654 | 0.635 | 0.612 | 0.6
[1], 10 µM | 0.915 | 0.793 | 0.719 | 0.651 | 0.617 | 0.584 | 0.556 | 0.534 | 0.519
[1], 100 µM | 0.962 | 0.883 | 0.906 | 0.891 | 0.845 | 0.833 | 0.815 | 0.821 | 0.805
[2], 0.1 µM | 0.853 | 0.719 | 0.644 | 0.566 | 0.508 | 0.484 | 0.451 | 0.448 | 0.444
[2], 1 µM | 0.831 | 0.721 | 0.633 | 0.556 | 0.499 | 0.469 | 0.435 | 0.425 | 0.412
[2], 10 µM | 0.896 | 0.712 | 0.713 | 0.641 | 0.607 | 0.5872 | 0.566 | 0.5705 | 0.5641
[2], 100 µM | 0.88689 | 0.815 | 0.736 | 0.677 | 0.634 | 0.613 | 0.604 | 0.603 | 0.597
[3], 0.1 µM | 0.8316 | 0.7547 | 0.6931 | 0.6403 | 0.5902 | 0.5679 | 0.5386 | 0.5292 | 0.521
[3], 1 µM | 0.8831 | 0.8034 | 0.7551 | 0.7092 | 0.676 | 0.6484 | 0.6363 | 0.6211 | 0.6106
[3], 10 µM | 0.9 | 0.802 | 0.7362 | 0.685 | 0.646 | 0.611 | 0.579 | 0.554 | 0.537
[3], 100 µM | 0.91 | 0.791 | 0.693 | 0.629 | 0.593 | 0.57 | 0.545 | 0.529 | 0.52
[4], 0.1 µM | 0.828 | 0.787 | 0.792 | 0.762 | 0.736 | 0.761 | 0.754 | 0.753 | 0.759
[4], 1 µM | 0.893 | 0.845 | 0.787 | 0.708 | 0.666 | 0.6413 | 0.621 | 0.6 | 0.59
[4], 10 µM | 0.849 | 0.7404 | 0.713 | 0.64 | 0.6 | 0.582 | 0.547 | 0.519 | 0.505
[4], 100 µM | 0.93 | 0.807 | 0.698 | 0.596 | 0.534 | 0.508 | 0.474 | 0.459 | 0.443
